# Measurements reported in PMC3464894.
# Results are given in words; binding and its absence hold for the method and conditions named. Binding seen in cells or lysates may run through a third protein. A yes stands for co-enrichment or nearness to the bait. Other partners may have been found. A no says only that the protein was not detected with the bait.
# B1: Serine/threonine-protein phosphatase 6 catalytic subunit (enzyme, UniProt O00743 1-305)
# chain: MAPLDLDKYVEIARLCKYLPENDLKRLCDYVCDLLLEESNVQPVSTPVTVCGDIHGQFYDLCELFRTGGQVPDTNYIFMGDFVDRGYYSLETFTYLLALKAKWPDRITLLRGNHESRQITQVYGFYDECQTKYGNANAWRYCTKVFDMLTVAALIDEQILCVHGGLSPDIKTLDQIRTIERNQEIPHKGAFCDLVWSDPEDVDTWAISPRGAGWLFGAKVTNEFVHINNLKLICRAHQLVHEGYKFMFDEKLVTVWSAPNYCYRCGNIASIMVFKDVNTREPKLFRAVPDSERVIPPRTTTPYFL
# B2: Serine/threonine-protein phosphatase 6 regulatory subunit 3 (protein, UniProt Q5H9R7 1-873)
# chain: MFWKFDLHSSSHIDTLLEREDVTLKELMDEEDVLQECKAQNRKLIEFLLKAECLEDLVSFIIEEPPQDMDEKIRYKYPNISCELLTSDVSQMNDRLGEDESLLMKLYSFLLNDSPLNPLLASFFSKVLSILISRKPEQIVDFLKKKHDFVDLIIKHIGTSAIMDLLLRLLTCIEPPQPRQDVLNWLNEEKIIQRLVEIVHPSQEEDRHSNASQSLCEIVRLSRDQMLQIQNSTEPDPLLATLEKQEIIEQLLSNIFHKEKNESAIVSAIQILLTLLETRRPTFEGHIEICPPGMSHSACSVNKSVLEAIRGRLGSFHELLLEPPKKSVMKTTWGVLDPPVGNTRLNVIRLISSLLQTNTSSINGDLMELNSIGVILNMFFKYTWNNFLHTQVEICIALILASPFENTENATITDQDSTGDNLLLKHLFQKCQLIERILEAWEMNEKKQAEGGRRHGYMGHLTRIANCIVHSTDKGPNSALVQQLIKDLPDEVRERWETFCTSSLGETNKRNTVDLVTTCHIHSSSDDEIDFKETGFSQDSSLQQAFSDYQMQQMTSNFIDQFGFNDEKFADQDDIGNVSFDRVSDINFTLNTNESGNIALFEACCKERIQQFDDGGSDEEDIWEEKHIAFTPESQRRSSSGSTDSEESTDSEEEDGAKQDLFEPSSANTEDKMEVDLSEPPNWSANFDVPMETTHGAPLDSVGSDVWSTEEPMPTKETGWASFSEFTSSLSTKDSLRSNSPVEMETSTEPMDPLTPSAAALAVQPEAAGSVAMEASSDGEEDAESTDKVTETVMNGGMKETLSLTVDAKTETAVFKSEEGKLSTSQDAACKDAEECPETAEAKCAAPRPPSSSPEQRTGQPSAPGDTSVNGPV
# B3: Inorganic pyrophosphatase (enzyme, UniProt Q15181 1-289)
# chain: MSGFSTEERAAPFSLEYRVFLKNEKGQYISPFHDIPIYADKDVFHMVVEVPRWSNAKMEIATKDPLNPIKQDVKKGKLRYVANLFPYKGYIWNYGAIPQTWEDPGHNDKHTGCCGDNDPIDVCEIGSKVCARGEIIGVKVLGILAMIDEGETDWKVIAINVDDPDAANYNDINDVKRLKPGYLEATVDWFRRYKVPDGKPENEFAFNAEFKDKDFAIDIIKSTHDHWKALVTKKTNGKGISCMNTTLSESPFKCDPDAARAIVDALPPPCESACTVPTDVDKWFHHQKN
# B4: Peroxiredoxin-2 (enzyme, UniProt P32119 1-198)
# chain: MASGNARIGKPAPDFKATAVVDGAFKEVKLSDYKGKYVVLFFYPLDFTFVCPTEIIAFSNRAEDFRKLGCEVLGVSVDSQFTHLAWINTPRKEGGLGPLNIPLLADVTRRLSEDYGVLKTDEGIAYRGLFIIDGKGVLRQITVNDLPVGRSVDEALRLVQAFQYTDEHGEVCPAGWKPGSDTIKPNVDDSKEYFSKHN
# B5: NEFA-interacting nuclear protein NIP30 (protein, UniProt Q9GZU8 1-254)
# chain: MDGGDDGNLIIKKRFVSEAELDERRKRRQEEWEKVRKPEDPEECPEEVYDPRSLYERLQEQKDRKQQEYEEQFKFKNMVRGLDEDETNFLDEVSRQQELIEKQRREEELKELKEYRNNLKKVGISQENKKEVEKKLTVKPIETKNKFSQAKLLAGAVKHKSSESGNSVKRLKPDPEPDDKNQEPSSCKSLGNTSLSGPSIHCPSAAVCIGILPGLGAYSGSSDSESSSDSEGTINATGKIVSSIFRTNTFLEAP
# Biological target: HTLV-2 p28 (S-p28-HA) (HTLV-2)
# Test: affinity purification with mass spectrometry; S-tagged p30 or p28 expressed in HEK 293T; lysate (1x passive lysis buffer) rocked with S-beads overnight at 4°C; washed once with 1 M NaCl RIPA, three times with RIPA, once with PBS; beads to shotgun Capillary-LC/MS/MS; proteins of the mock control subtracted; duplicate experiments
row,Binder,binding
1,B1,binds
2,B2,binds
3,B3,binds
4,B4,binds
5,B5,no binding
